The assay concerns the target T1, PRMT5 (protein arginine N-methyltransferase 5), endogenous in U2OS cells (UniProt O14744 1-637).
T1 construct: Endogenous protein in U2OS cell lysate, detected by immunoblot with the anti-PRMT5 antibody (Upstate)
The experiment in a line: co-immunoprecipitation (HA11) from transfected U2OS cells, immunoblot. (Immunoblotting shows a protein as a band on a membrane.)

Amino acid sequences for entries named in this document (tags omitted).
UniProt O14744, whole entry: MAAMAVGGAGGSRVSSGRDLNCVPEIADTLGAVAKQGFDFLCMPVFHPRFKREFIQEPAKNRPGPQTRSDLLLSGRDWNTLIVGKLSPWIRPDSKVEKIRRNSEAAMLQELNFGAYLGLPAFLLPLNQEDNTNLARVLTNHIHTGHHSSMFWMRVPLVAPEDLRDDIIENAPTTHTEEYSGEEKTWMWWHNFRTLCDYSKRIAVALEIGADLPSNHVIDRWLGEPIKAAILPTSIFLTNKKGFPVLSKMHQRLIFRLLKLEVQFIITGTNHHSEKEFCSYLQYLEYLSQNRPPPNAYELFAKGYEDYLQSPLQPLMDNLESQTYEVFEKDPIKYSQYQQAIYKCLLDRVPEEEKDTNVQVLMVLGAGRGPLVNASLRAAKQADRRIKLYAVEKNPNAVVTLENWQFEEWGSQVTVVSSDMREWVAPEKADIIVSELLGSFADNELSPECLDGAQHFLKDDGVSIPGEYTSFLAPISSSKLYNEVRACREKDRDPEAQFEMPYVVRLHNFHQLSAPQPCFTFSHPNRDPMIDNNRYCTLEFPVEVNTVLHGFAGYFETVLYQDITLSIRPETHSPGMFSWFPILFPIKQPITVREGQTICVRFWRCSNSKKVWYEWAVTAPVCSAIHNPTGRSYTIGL

The results in this text go back to patent US20130011497A1 (published 2013).

B1: ectopic E2F-1 KKK mutant (HA-E2F1 R109K/R111K/R113K) expressed in cells (other)
chain: MALAGAPAGGPCAPALEALLGAGALRLLDSSQIVIISAAQDASAPPAPTGPAAPAAGPCDPDLLLFATPQAPRPTPSAPRPALGRPPVKRRLDLETDHQYLAESSGPAKGKGKHPGKGVKSPGEKSRYETSLNLTTKRFLELLSHSADGVVDLNWAAEVLKVQKRRIYDITNVLEGIQLIAKKSKNHIQWLGSHTTVGVGGRLEGLTQDLRQLQESEQQLDHLMNICTTQLRLLSEDTDSQRLAYVTCQDLRSIADPAEQMVMVIKAPPETQLQAVDSSENFQISLKSKQGPIDVFLCPEETVGGISPGKTPSQEVTSEEENRATDSATIVSPPPSSPPSSLTTDPSQSLLSLEQEPLLSRMGSLRAPVDEDRLSPLVAADSLLEHVREDFSGLLPEEFISLSPPHEALDYHFGLEEGEGIRDLFDCDFGDLTPLDF
notes: Expressed from a transfected vector in U2OS or HeLa cells and immunoprecipitated with HA11; not shown: HA tag (recognised by the HA11 antibody)
As for B1, the binding result was “no binding”.
